# Assay results published in the supplement of paper PMC8728848.
# The other results are listed elsewhere or left out.
# Assays:
# Experiment in all cases: glycan array binding signal (z-score within array); higher = stronger binding
# Conditions in all cases: glycan notation: IUPAC condensed, linker removed
# [1] = target: GlcNAc(b1-3)Gal(b1-4)GlcNAc(b1-3)Gal(b1-4)GlcNAc(b1-3)GalNAc
# Summary of the method: (§1)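 From the Consortium for Functional Glycomics database, 3228 arrays were curated, keeping only those whose protein sequence was available. Binding is given as a within-array Z-score averaged across arrays sharing a protein sequence and across linkers. Negative Z-scores can be read as non-binding.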
# [2] = target: GlcNAc(b1-3)Gal(b1-4)GlcNAc(b1-3)GalNAc
# Summary of the method: as §1
# [3] = target: GlcNAc(b1-3)Gal(b1-4)GlcNAc(b1-3)[GlcNAc(b1-3)Gal(b1-4)GlcNAc(b1-3)]GalNAc
# Summary of the method: as §1
# [4] = target: GlcNAc(b1-3)Gal(b1-4)GlcNAc(b1-6)[Gal(b1-3)]GalNAc
# Summary of the method: as §1
# [5] = target: GlcNAc(b1-3)Gal(b1-4)GlcNAc(b1-6)[GlcNAc(b1-3)Gal(b1-3)]GalNAc
# Summary of the method: as §1
# [6] = target: GlcNAc(b1-3)Gal(b1-4)GlcNAc(b1-6)[GlcNAc(b1-3)]Gal(b1-4)GlcNAc
# Summary of the method: as §1
# GlcNAc(b1-3)GalNAc = target: GlcNAc(b1-3)GalNAc
# Summary of the method: as §1
# GlcNAc(b1-3)Man = target: GlcNAc(b1-3)Man
# Summary of the method: as §1
# [7] = target: GlcNAc(b1-3)[GlcNAc(b1-4)][GlcNAc(b1-6)]GlcNAc
# Summary of the method: as §1
# [8] = target: GlcNAc(b1-3)[GlcNAc(b1-6)]Gal(b1-4)GlcNAc
# Summary of the method: as §1
# [9] = target: GlcNAc(b1-3)[GlcNAc(b1-6)]GalNAc
# Summary of the method: as §1
# [10] = target: GlcNAc(b1-4)Gal(b1-4)GlcNAc
# Summary of the method: as §1
# GlcNAc(b1-4)GlcNAc = target: GlcNAc(b1-4)GlcNAc
# Summary of the method: as §1
# [11] = target: GlcNAc(b1-4)GlcNAc(b1-4)GlcNAc
# Summary of the method: as §1
# [12] = target: GlcNAc(b1-4)GlcNAc(b1-4)GlcNAc(b1-4)GlcNAc(b1-4)GlcNAc
# Summary of the method: as §1
# [13] = target: GlcNAc(b1-4)GlcNAc(b1-4)GlcNAc(b1-4)GlcNAc(b1-4)GlcNAc(b1-4)GlcNAc
# Summary of the method: as §1
# [14] = target: GlcNAc(b1-4)[GlcNAc(b1-6)]GalNAc
# Summary of the method: as §1
# [15] = target: GlcNAc(b1-6)Gal(b1-4)GlcNAc
# Summary of the method: as §1
# GlcNAc(b1-6)GalNAc = target: GlcNAc(b1-6)GalNAc
# Summary of the method: as §1
# [16] = target: GlcNAc6S(b1-3)Gal(b1-4)GlcNAc
# Summary of the method: as §1
# Kdn(a2-3)Gal(b1-3)GalNAc = target: Kdn(a2-3)Gal(b1-3)GalNAc
# Summary of the method: as §1
# Kdn(a2-3)Gal(b1-3)GlcNAc = target: Kdn(a2-3)Gal(b1-3)GlcNAc
# Summary of the method: as §1
# Kdn(a2-3)Gal(b1-4)Glc = target: Kdn(a2-3)Gal(b1-4)Glc
# Summary of the method: as §1
# Kdn(a2-3)Gal(b1-4)GlcNAc = target: Kdn(a2-3)Gal(b1-4)GlcNAc
# Summary of the method: as §1
# [17] = target: Kdn(a2-3)Gal(b1-4)[Fuc(a1-3)]GlcNAc
# Summary of the method: as §1
# Kdn(a2-6)Gal(b1-4)GlcNAc = target: Kdn(a2-6)Gal(b1-4)GlcNAc
# Summary of the method: as §1
# [18] = target: Man(a1-2)Man(a1-2)Man(a1-3)Man
# Summary of the method: as §1
# [19] = target: Man(a1-2)Man(a1-2)Man(a1-6)[Man(a1-3)]Man
# Summary of the method: as §1
# Man(a1-2)Man(a1-3)Man = target: Man(a1-2)Man(a1-3)Man
# Summary of the method: as §1
# [20] = target: Man(a1-2)Man(a1-3)[Man(a1-2)Man(a1-6)]Man
# Summary of the method: as §1
# [21] = target: Man(a1-2)Man(a1-3)[Man(a1-2)Man(a1-6)]Man(a1-6)[Man(a1-2)Man(a1-2)Man(a1-3)]Man
# Summary of the method: as §1
# [22] = target: Man(a1-2)Man(a1-3)[Man(a1-2)Man(a1-6)]Man(a1-6)[Man(a1-2)Man(a1-2)Man(a1-3)]Man(b1-4)GlcNAc(b1-4)GlcNAc
# Summary of the method: as §1
# [23] = target: Man(a1-2)Man(a1-3)[Man(a1-6)]Man(a1-6)[Man(a1-2)Man(a1-3)]Man(b1-4)GlcNAc(b1-4)GlcNAc
# Summary of the method: as §1
# [24] = target: Man(a1-2)Man(a1-6)[Man(a1-3)]Man(a1-6)[Man(a1-2)Man(a1-2)Man(a1-3)]Man
# Summary of the method: as §1
# [25] = target: Man(a1-2)Man(a1-6)[Man(a1-3)]Man(a1-6)[Man(a1-2)Man(a1-2)Man(a1-3)]Man(b1-4)GlcNAc(b1-4)GlcNAc
# Summary of the method: as §1
# Man(a1-3)[Man(a1-6)]Man = target: Man(a1-3)[Man(a1-6)]Man
# Summary of the method: as §1
# [26] = target: Man(a1-3)[Man(a1-6)]Man(a1-6)[Man(a1-2)Man(a1-3)]Man(b1-4)GlcNAc(b1-4)GlcNAc
# Summary of the method: as §1
binder,measurement,setting,value
Clec39 (Caenorhabditis elegans) (protein) MTSFYDNSSSSSKPVPLKTSRAQKIQILIFDNWKLILYGAISTLILVLAIMFSTLFFALPAANCDENSEPTKYYTTNAEITTTITTTNQKTTSTASSHLTTISSSATQIYSESSSSSTSQSTFTQSPPEISTTTIAPSDFSCQHGFTLVNNKCWKLVTSNQARPDADKICNGYGGATLFSIKSEQDNRAMIHFVKGQDIDFLWSGLLCSAGEPISCIWDIENGSTANYSNFADGFPNIVYGNCVYFITSGDEAGQWGNEQCGQVMNFVCELPATFQGKDGCKNNYEKSCYLRFDLNLTVPQAQNFCLEKCANLVSIHSANEVRFIMTIYDFIGEILIGALAPAQDFIYWLDGTPANYNNLKFFYNSTCVHMTVAPGMQNVGKWFTRFCTETGKFLCKRSIKNSCT,glycan array binding signal (z-score),[1],-1.23
same,glycan array binding signal (z-score),[2],1.08
same,glycan array binding signal (z-score),[3],-0.004
same,glycan array binding signal (z-score),[4],-1.24
same,glycan array binding signal (z-score),[5],0.339
same,glycan array binding signal (z-score),[6],1.44
same,glycan array binding signal (z-score),GlcNAc(b1-3)GalNAc,0.454
same,glycan array binding signal (z-score),GlcNAc(b1-3)Man,-0.997
same,glycan array binding signal (z-score),[7],0.102
same,glycan array binding signal (z-score),[8],0.081
same,glycan array binding signal (z-score),[9],0.615
same,glycan array binding signal (z-score),[10],-0.539
same,glycan array binding signal (z-score),GlcNAc(b1-4)GlcNAc,0.264
same,glycan array binding signal (z-score),[11],-0.088
same,glycan array binding signal (z-score),[12],-0.353
same,glycan array binding signal (z-score),[13],-0.864
same,glycan array binding signal (z-score),[14],0.517
same,glycan array binding signal (z-score),[15],0.316
same,glycan array binding signal (z-score),GlcNAc(b1-6)GalNAc,-0.555
same,glycan array binding signal (z-score),[16],-1.16
same,glycan array binding signal (z-score),Kdn(a2-3)Gal(b1-3)GalNAc,0.326
same,glycan array binding signal (z-score),Kdn(a2-3)Gal(b1-3)GlcNAc,-0.241
same,glycan array binding signal (z-score),Kdn(a2-3)Gal(b1-4)Glc,0.281
same,glycan array binding signal (z-score),Kdn(a2-3)Gal(b1-4)GlcNAc,-0.512
same,glycan array binding signal (z-score),[17],0.741
same,glycan array binding signal (z-score),Kdn(a2-6)Gal(b1-4)GlcNAc,0.204
same,glycan array binding signal (z-score),[18],-0.46
same,glycan array binding signal (z-score),[19],-0.763
same,glycan array binding signal (z-score),Man(a1-2)Man(a1-3)Man,-0.37
same,glycan array binding signal (z-score),[20],-0.005
same,glycan array binding signal (z-score),[21],0.088
same,glycan array binding signal (z-score),[22],-0.047
same,glycan array binding signal (z-score),[23],0.209
same,glycan array binding signal (z-score),[24],-1.2
same,glycan array binding signal (z-score),[25],0.7
same,glycan array binding signal (z-score),Man(a1-3)[Man(a1-6)]Man,0.047
same,glycan array binding signal (z-score),[26],-1.01

# In another format: entries from further up
binder | measurement | setting | value
Clec39 (Caenorhabditis elegans) (protein) MTSFYDNSSSSSKPVPLKTSRAQKIQILIFDNWKLILYGAISTLILVLAIMFSTLFFALPAANCDENSEPTKYYTTNAEITTTITTTNQKTTSTASSHLTTISSSATQIYSESSSSSTSQSTFTQSPPEISTTTIAPSDFSCQHGFTLVNNKCWKLVTSNQARPDADKICNGYGGATLFSIKSEQDNRAMIHFVKGQDIDFLWSGLLCSAGEPISCIWDIENGSTANYSNFADGFPNIVYGNCVYFITSGDEAGQWGNEQCGQVMNFVCELPATFQGKDGCKNNYEKSCYLRFDLNLTVPQAQNFCLEKCANLVSIHSANEVRFIMTIYDFIGEILIGALAPAQDFIYWLDGTPANYNNLKFFYNSTCVHMTVAPGMQNVGKWFTRFCTETGKFLCKRSIKNSCT | glycan array binding signal (z-score) | [4] | -1.24
same | glycan array binding signal (z-score) | [5] | 0.339
